# From patent US20020197617, “Aptamers as reagents for high throughput screening” (GILEAD SCIENCES, INC., published 2002)
# Amino acid sequences for entries named in this document (tags omitted). Residues count along the entry.
# UniProt P01127, 82-190: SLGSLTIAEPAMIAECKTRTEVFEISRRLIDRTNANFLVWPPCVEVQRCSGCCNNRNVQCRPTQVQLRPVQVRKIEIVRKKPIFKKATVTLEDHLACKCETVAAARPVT
# Biological target: PDGF-BB (platelet-derived growth factor BB) (Homo sapiens) (UniProt P01127)
# Assay: FP
# Settings: 27-mer truncated to reduce affinity about 10-fold; Kd method not stated, competition assays by nitrocellulose filter binding in HBSMC pH 7.4, 1 mM Mg, 1 mM Ca, 37 C; purified recombinant protein; protein details: R&D Systems, carrier free lyophilized; label: 5'-32P; single-stranded DNA; variant of 20ta
sequence,measurement,value
GGGCCGTTTCGGGTTACTTTTAGTCCC [20tb],Kd,0.5 nM

# For at least one entry, the source does not settle the construct or the ends of the probe.
